Source: patent US20140363818A1, “EGFR and PAR2 Regulation of Intestinal Permeability” (UNIVERSITY OF MARYLAND, BALTIMORE, priority 2009, published 2014)

System: serine proteases
Test: Proteolytic cleavage of single chain pre-HP2 by serine proteases (SDS-PAGE)
Assay type: biochemical
Details: purified single chain pre-HP2

Question: What does the source list for “zonulin: Recombinant human haptoglobin-2 precursor (pre-HP2), uncleaved single chain, expressed in a baculovirus system”?
Answer: cleavage by matriptase, urokinase, thrombin and plasma kallikrein: did not cleave; cleavage by plasmin: complete degradation; cleavage by trypsin (cleaved at Arg161): appearance of two major bands
